Measurements published in article PMC5230776.
These are yes or no findings as the source states them, for the method shown. In cells and extracts the contact can be indirect. Here binding means that the protein was enriched with, or labelled near, the bait; the list need not be complete.

Protein sequences, listed by entry. Tags and fused reporters are not part of them.
UniProt P46934: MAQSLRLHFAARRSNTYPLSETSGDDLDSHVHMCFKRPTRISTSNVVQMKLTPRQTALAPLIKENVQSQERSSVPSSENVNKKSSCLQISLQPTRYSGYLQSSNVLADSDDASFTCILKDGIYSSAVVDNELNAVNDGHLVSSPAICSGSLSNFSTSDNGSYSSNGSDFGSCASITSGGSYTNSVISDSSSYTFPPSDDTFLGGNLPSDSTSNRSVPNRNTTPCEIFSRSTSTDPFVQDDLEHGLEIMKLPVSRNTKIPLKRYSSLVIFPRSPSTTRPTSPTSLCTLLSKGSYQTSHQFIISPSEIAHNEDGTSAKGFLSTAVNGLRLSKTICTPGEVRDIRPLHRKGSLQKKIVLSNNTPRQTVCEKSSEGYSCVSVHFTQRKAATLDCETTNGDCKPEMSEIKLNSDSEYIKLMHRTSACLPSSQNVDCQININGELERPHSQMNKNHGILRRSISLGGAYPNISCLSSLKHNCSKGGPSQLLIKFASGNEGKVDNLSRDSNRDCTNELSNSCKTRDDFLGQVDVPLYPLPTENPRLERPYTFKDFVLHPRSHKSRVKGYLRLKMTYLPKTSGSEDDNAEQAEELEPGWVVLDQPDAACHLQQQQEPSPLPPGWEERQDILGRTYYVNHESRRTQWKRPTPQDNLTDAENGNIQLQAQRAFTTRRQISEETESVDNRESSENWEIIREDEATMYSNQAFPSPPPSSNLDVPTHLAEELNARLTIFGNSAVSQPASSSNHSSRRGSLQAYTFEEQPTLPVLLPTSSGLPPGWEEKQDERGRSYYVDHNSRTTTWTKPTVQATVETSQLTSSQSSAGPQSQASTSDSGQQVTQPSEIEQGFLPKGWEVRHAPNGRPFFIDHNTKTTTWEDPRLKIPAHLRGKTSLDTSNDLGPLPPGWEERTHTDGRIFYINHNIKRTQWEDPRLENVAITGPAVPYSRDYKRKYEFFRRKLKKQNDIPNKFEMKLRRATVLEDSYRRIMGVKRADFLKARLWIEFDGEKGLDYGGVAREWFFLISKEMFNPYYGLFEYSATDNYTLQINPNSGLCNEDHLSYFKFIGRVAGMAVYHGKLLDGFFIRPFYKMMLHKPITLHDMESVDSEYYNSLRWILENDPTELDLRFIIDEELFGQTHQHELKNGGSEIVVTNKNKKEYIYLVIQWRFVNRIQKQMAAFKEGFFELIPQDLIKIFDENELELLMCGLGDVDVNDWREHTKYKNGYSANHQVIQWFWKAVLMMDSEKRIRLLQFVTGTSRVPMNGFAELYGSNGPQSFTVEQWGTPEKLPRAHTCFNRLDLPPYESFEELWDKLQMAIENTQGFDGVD
UniProt P98170: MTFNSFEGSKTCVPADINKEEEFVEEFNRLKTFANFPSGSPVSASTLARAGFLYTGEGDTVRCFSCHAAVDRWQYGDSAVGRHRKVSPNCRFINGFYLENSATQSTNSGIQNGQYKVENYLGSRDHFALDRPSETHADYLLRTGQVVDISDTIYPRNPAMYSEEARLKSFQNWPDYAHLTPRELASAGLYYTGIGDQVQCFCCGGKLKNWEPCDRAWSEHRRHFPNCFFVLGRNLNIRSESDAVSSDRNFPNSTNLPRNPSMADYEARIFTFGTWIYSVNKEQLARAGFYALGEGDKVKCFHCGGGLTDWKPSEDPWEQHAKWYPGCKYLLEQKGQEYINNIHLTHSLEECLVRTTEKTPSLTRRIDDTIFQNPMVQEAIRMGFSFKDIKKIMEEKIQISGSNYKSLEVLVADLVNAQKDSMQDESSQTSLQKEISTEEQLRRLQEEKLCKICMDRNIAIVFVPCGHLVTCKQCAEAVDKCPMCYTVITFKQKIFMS

Target: T1, Trx(C35S), thioredoxin trap mutant (human) (UniProt P10599)
T1 sequence: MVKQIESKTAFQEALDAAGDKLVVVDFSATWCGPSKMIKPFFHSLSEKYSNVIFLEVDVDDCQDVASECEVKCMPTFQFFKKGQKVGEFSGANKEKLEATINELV
Test: affinity purification with mass spectrometry; Trx(C35S) (50 ug, scaled up 4-fold for proteomics) loaded on streptavidin agarose beads, incubated 1 h at 4°C with digitonin lysates of A549 cells (treated with 500 uM CysNO for 10 min, or LPS/TNFα/IFN-γ/IL-1β for 72 h, or untreated); mixed-disulfide trapping quenched with NEM; washes with 1 M NaCl and 1% Triton X-100; elution with 20 mM DTT; LC-MS/MS; only the target purified

Substance	binding
NEDD4, S-nitrosylated (from UniProt P46934 1-1319)	binds
XIAP, S-nitrosylated (from UniProt P98170 1-497)	binds
